Assay results as given in article PMC4396693, “Structural Basis of Latrophilin-FLRT Interaction” (Structure(London, England:1993), 2015).
Results are given in words; binding and its absence hold for the method and conditions named. Tags and fused reporters may be left off the sequences shown.

Legend:
[1] = biological target: T1, murine LPHN3^Lec-Olf mutant LPHN3^LF (R292N+R294T), biotinylated at a C-terminal Avi-Tag (murine) (UniProt Q80TS3); assay: SPR; biotinylated wild-type or mutant LPHN3^Lec-Olf on streptavidin-coated Biacore chips, FLRT2 ectodomain injected as analyte; equilibrium, 25°C, PBS pH 7.5, 0.005% polysorbate 20; 1:1 model; both purified
T1 sequence (chain, biotin on the C-terminal Avi-Tag (enzymatic)): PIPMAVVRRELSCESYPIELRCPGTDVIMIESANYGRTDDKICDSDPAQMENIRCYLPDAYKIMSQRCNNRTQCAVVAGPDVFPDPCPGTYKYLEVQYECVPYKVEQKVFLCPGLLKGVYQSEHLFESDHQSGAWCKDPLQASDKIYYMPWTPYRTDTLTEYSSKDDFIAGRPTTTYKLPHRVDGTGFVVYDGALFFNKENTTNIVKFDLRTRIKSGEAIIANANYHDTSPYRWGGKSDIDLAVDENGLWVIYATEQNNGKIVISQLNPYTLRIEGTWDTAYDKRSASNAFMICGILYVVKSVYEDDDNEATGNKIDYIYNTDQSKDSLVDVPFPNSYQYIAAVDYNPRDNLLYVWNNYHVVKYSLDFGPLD

[2] = biological target: T2, murine LPHN3^Lec-Olf mutant LPHN3^LF(2) (R324N+G326T), biotinylated at a C-terminal Avi-Tag (murine) (UniProt Q80TS3); assay: as above
T2 sequence (chain, biotin on the C-terminal Avi-Tag (enzymatic)): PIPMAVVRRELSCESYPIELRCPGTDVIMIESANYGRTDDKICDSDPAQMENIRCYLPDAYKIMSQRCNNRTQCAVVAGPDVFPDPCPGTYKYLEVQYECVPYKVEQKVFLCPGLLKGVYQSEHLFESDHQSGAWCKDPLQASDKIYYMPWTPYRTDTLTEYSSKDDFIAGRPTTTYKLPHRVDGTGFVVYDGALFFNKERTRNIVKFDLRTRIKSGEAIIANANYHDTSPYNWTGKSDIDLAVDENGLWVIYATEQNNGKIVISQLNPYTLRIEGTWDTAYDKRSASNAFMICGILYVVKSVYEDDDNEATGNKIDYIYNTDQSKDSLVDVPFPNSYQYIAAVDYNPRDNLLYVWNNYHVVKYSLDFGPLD

binding [1]: no binding | binding [2]: no binding
B1: murine FLRT2 full ectodomain, wild type (residues 35-540) (domain or fragment)
chain: ACPSVCRCDRNFVYCNERSLTSVPLGIPEGVTVLYLHNNQINNAGFPAELHNVQSVHTVYLYGNQLDEFPMNLPKNVRVLHLQENNIQTISRAALAQLLKLEELHLDDNSISTVGVEDGAFREAISLKLLFLSKNHLSSVPVGLPVDLQELRVDENRIAVISDMAFQNLTSLERLIVDGNLLTNKGIAEGTFSHLTKLKEFSIVRNSLSHPPPDLPGTHLIRLYLQDNQINHIPLTAFANLRKLERLDISNNQLRMLTQGVFDHLSNLKQLTARNNPWFCDCSIKWVTEWLKYIPSSLNVRGFMCQGPEQVRGMAVRELNMNLLSCPTTTPGLPVFTPAPSTVSPTTQSPTLSVPSPSRGSVPPAPTPSKLPTIPDWDGRERVTPPISERIQLSIHFVNDTSIQVSWLSLFTVMAYKLTWVKMGHSLVGGIVQERIVSGEKQHLSLVNLEPRSTYRICLVPLDAFNYRTVEDTICSEATTHASYLNNGSNTASSHEQTTSHSMGSP
